# PubChem BioAssay AID1159578, Peter MacCallum Cancer Centre – 2015
# Assay: 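Knock-downs that alter how fast lymphatic endothelial cells migrate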 (primary screen)
# System: human lymphatic endothelial cells
# Reagent: siRNA pool against human genes, 40 nM
# Timing: 48 h after transfection
# Read-out: 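High-content imaging of dye-stained cells in a scratch assay measures filled wound area and nuclei per well; duplicate means given as ratio to mock and robust z-score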
# Scale: migration robust z-score: higher = faster migration into the scratch; migration relative to mock: higher = more scratch area covered than mock; nuclei per well: higher = more cells in the well
# Active means: 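Migration changed when robust z exceeds 2 or falls below -2 and mean nuclei number is at least 3300; otherwise not called changed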
# Meaning of the calls: active = migration changed; inactive = no migration change, or too few cells
# The whole screen tested about 18,000 reagents; shown is a part drawn at random. In the full data, about 1,030 (5.7%) got an active call. 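Inactive calls also include pools with fewer than 3300 nuclei, whose migration was not assessed.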 Raw values vary from plate to plate and are shown uncorrected. Unmarked entries are inactive.
Target gene,PubChem SID,migration robust z-score,migration class with cell-count check,migration relative to mock,"nuclei per well, duplicate mean"
HECTD3,SID255360362,0.26,migration z between -2 and 2; enough cells,0.85,5814
KBTBD11,SID255354666,0.39,migration z between -2 and 2; enough cells,0.99,5782
MIDN,SID255361775,1.04,migration z between -2 and 2; enough cells,1.15,7042
INHBE,SID255361076,-0.85,migration z between -2 and 2; enough cells,0.66,5464
ATG4D,SID255361621,-0.08,migration z between -2 and 2; enough cells,0.79,5356
EMC4,SID255357578,-0.01,migration z between -2 and 2; enough cells,0.89,7038
ABCA10,SID255355014,-0.72,migration z between -2 and 2; enough cells,0.7,6890
SCO1,SID255352315,-0.62,migration z between -2 and 2; enough cells,0.72,4934
MTFP1,SID255357773,-0.31,migration z between -2 and 2; enough cells,0.8,4884
GOSR2,SID255354381,2.44 (active),migration z above 2; enough cells,1.27,4458
EME2,SID255363992,1.37,migration z between -2 and 2; enough cells,1.24,6240
BIVM,SID255358204,1.98,migration z between -2 and 2; enough cells,1.4,6420
SCGB1C1,SID255363322,-3.89 (active),migration z below -2; enough cells,-0.12,6060
PLEKHO2,SID255360739,-1.36,migration z between -2 and 2; enough cells,0.53,5468
LIAT1,SID255365746,1.71,migration z between -2 and 2; enough cells,1.34,5234
PPAT,SID255351718,0.24,migration z between -2 and 2; enough cells,0.85,4957
SERPINA12,SID255363240,0.5,migration z between -2 and 2; enough cells,1.02,5166
POLDIP3,SID255361287,0.54,migration z between -2 and 2; enough cells,1.02,6526
DRGX,SID255366095,0.88,migration z between -2 and 2; enough cells,1.12,5234
TSPAN14,SID255360924,-0.6,migration z between -2 and 2; enough cells,0.73,5554
ZCCHC9,SID255361261,-0.8,migration z between -2 and 2; enough cells,0.68,5816
TRIM41,SID255361873,0.68,migration z between -2 and 2; enough cells,0.94,4898
FAM111B,SID255365318,0.44,migration z between -2 and 2; enough cells,1,5874

Sorted by “migration relative to mock” (low to high): some entries from above
Target gene,PubChem SID,migration robust z-score,migration class with cell-count check,migration relative to mock,"nuclei per well, duplicate mean"
MTFP1,SID255357773,-0.31,migration z between -2 and 2; enough cells,0.8,4884
EME2,SID255363992,1.37,migration z between -2 and 2; enough cells,1.24,6240
GOSR2,SID255354381,2.44 (active),migration z above 2; enough cells,1.27,4458
